{
  "source": "the supplement of paper PMC12889115",
  "test_system": "Salmonella enterica serovar Typhimurium SL1344",
  "test": "bacterial growth OD600 after 18 h with compound and polymyxin B; higher = more bacterial growth (less inhibition)",
  "conditions": "50 µM, Mueller-Hinton broth",
  "note": "Some of the results follow. Values are raw readings; no control value is given beside them.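 In the initial screen, polymyxin B was used at a concentration that permeabilizes Salmonella's outer membrane but not its inner membrane. Maximum growth was set by DMSO wells with or without polymyxin B. Since plates varied, data were ranked per plate, and compounds giving the lowest OD600 advanced as hits.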",
  "data": [
    {"molecule": "CCOC(=O)C1(C/C=C/c2ccccc2)CCCN(Cc2cnn(C)c2C)C1", "note": "(centres undefined)", "values": [
      {"measurement": "bacterial growth OD600", "setting": "polymyxin B 1 µg/mL", "value": 0.791}
    ]},
    {"molecule": "O[C@@H]1CN(C/C(Cl)=C/c2ccccc2)CC[C@H]1N1CCN(c2ccccn2)CC1", "values": [
      {"measurement": "bacterial growth OD600", "setting": "polymyxin B 1 µg/mL", "value": 0.82}
    ]},
    {"molecule": "COc1ccc(-c2nn(-c3ccccc3C)cc2CN2CCN(CCO)CC2)cc1F", "values": [
      {"measurement": "bacterial growth OD600", "setting": "polymyxin B 1 µg/mL", "value": 0.911}
    ]},
    {"molecule": "O=C(Nc1ccc(Oc2ccccc2F)cc1)C1CCCCN1C(=O)Cn1cncn1", "note": "(centres undefined)", "values": [
      {"measurement": "bacterial growth OD600", "setting": "polymyxin B 0.75 µg/mL", "value": 0.789}
    ]},
    {"molecule": "O=C(Nc1cccc(-c2cccc(F)c2)c1)C1CCN(CC2CC2)CC1", "values": [
      {"measurement": "bacterial growth OD600", "setting": "polymyxin B 1 µg/mL", "value": 0.676}
    ]},
    {"molecule": "Cc1ccccc1CCC1CCCN(C(=O)CCc2c(C)noc2C)C1", "note": "(centres undefined)", "values": [
      {"measurement": "bacterial growth OD600", "setting": "polymyxin B 1 µg/mL", "value": 0.015}
    ]},
    {"molecule": "COc1ccc2ccc(OCc3nc(C(=O)N4CCCCCC4)co3)cc2c1", "values": [
      {"measurement": "bacterial growth OD600", "setting": "polymyxin B 1 µg/mL", "value": 0.673}
    ]},
    {"molecule": "OC1CCN([C@@H]2CCN(CC3CCCC3)C[C@H]2O)CC1", "values": [
      {"measurement": "bacterial growth OD600", "setting": "polymyxin B 1 µg/mL", "value": 1.07}
    ]},
    {"molecule": "OCCC1CCN(c2ccc(-c3nc(Cc4ccccc4)no3)cn2)CC1", "values": [
      {"measurement": "bacterial growth OD600", "setting": "polymyxin B 1 µg/mL", "value": 0.571}
    ]},
    {"molecule": "CCn1ccnc1CN(CCOC)CC1CCCN(C2Cc3ccccc3C2)C1", "note": "(centres undefined)", "values": [
      {"measurement": "bacterial growth OD600", "setting": "polymyxin B 1 µg/mL", "value": 0.804}
    ]},
    {"molecule": "Cc1ncc2c(c1CNC(=O)CSc1ncccn1)CCN(C(=O)c1ccc(CC(C)C)cc1)C2", "values": [
      {"measurement": "bacterial growth OD600", "setting": "polymyxin B 0.75 µg/mL", "value": 0.738}
    ]},
    {"molecule": "CCOCc1cc(CN2CCC(CCC(=O)NCc3cccnc3)CC2)ccc1OC", "values": [
      {"measurement": "bacterial growth OD600", "setting": "polymyxin B 1 µg/mL", "value": 1.26}
    ]},
    {"molecule": "O=C(Cc1ccc(N2CCNC2=O)cc1)NCCN1Cc2ccccc2OC(c2ccsc2)C1", "note": "(centres undefined)", "values": [
      {"measurement": "bacterial growth OD600", "setting": "polymyxin B 0.75 µg/mL", "value": 0.892}
    ]},
    {"molecule": "COCc1ccc(C(=O)NCc2c(C)ncc3c2CCN(C(=O)c2ccc4cc[nH]c4c2)C3)o1", "values": [
      {"measurement": "bacterial growth OD600", "setting": "polymyxin B 0.75 µg/mL", "value": 0.824}
    ]},
    {"molecule": "CCCc1ncc(CN(C)C2CCCN(CCc3ccccc3)C2)cn1", "note": "(centres undefined)", "values": [
      {"measurement": "bacterial growth OD600", "setting": "polymyxin B 1 µg/mL", "value": 1.1}
    ]},
    {"molecule": "O=C(CC1C(=O)NCCN1Cc1c(F)cccc1Cl)NCCc1ccccn1", "note": "(centres undefined)", "values": [
      {"measurement": "bacterial growth OD600", "setting": "polymyxin B 1 µg/mL", "value": 0.795}
    ]},
    {"molecule": "CC(=O)c1cc(CN(C)CC2CCN(Cc3ccc(C)o3)CC2)cs1", "values": [
      {"measurement": "bacterial growth OD600", "setting": "polymyxin B 1 µg/mL", "value": 0.915}
    ]},
    {"molecule": "CCn1c(-c2cccc(OC)c2)nc2cc(NC(C)=O)cc(C(=O)NCCCOc3cccnc3)c21", "values": [
      {"measurement": "bacterial growth OD600", "setting": "polymyxin B 0.75 µg/mL", "value": 0.839}
    ]},
    {"molecule": "Cc1nc(N2CCC(C(=O)N(C)Cc3ccc(C(F)(F)F)cc3)CC2)nc2ccccc12", "values": [
      {"measurement": "bacterial growth OD600", "setting": "polymyxin B 0.75 µg/mL", "value": 0.009}
    ]}
  ]
}
